The target of test [1] is T1, Flag-FBLN7 (LV-FBLN7) in SVF cells (UniProt Q501P1).
T1 sequence: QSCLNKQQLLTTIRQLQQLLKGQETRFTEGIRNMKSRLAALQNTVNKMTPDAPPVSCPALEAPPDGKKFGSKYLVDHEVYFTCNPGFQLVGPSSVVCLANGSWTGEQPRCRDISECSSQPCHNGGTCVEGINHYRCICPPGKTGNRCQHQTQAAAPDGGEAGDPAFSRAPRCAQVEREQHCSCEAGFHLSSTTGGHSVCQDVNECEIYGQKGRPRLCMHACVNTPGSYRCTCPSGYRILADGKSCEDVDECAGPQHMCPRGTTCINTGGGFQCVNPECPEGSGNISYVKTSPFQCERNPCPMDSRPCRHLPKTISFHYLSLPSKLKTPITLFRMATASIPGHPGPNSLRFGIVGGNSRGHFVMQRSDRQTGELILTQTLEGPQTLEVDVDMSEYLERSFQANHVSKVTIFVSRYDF
The test is described as follows: co-IP; IP of Flag from SVF cells (ASPCs) infected with Flag-empty control (LV-Ctrl) or Flag-FBLN7 (LV-FBLN7), followed by immunoblot. A general note: In western blotting, separated proteins are transferred to a membrane and probed.

By UniProt entry, the sequences of proteins in these tests, tags left out. Residues count along the entry.
UniProt P35441, residues 19-1170: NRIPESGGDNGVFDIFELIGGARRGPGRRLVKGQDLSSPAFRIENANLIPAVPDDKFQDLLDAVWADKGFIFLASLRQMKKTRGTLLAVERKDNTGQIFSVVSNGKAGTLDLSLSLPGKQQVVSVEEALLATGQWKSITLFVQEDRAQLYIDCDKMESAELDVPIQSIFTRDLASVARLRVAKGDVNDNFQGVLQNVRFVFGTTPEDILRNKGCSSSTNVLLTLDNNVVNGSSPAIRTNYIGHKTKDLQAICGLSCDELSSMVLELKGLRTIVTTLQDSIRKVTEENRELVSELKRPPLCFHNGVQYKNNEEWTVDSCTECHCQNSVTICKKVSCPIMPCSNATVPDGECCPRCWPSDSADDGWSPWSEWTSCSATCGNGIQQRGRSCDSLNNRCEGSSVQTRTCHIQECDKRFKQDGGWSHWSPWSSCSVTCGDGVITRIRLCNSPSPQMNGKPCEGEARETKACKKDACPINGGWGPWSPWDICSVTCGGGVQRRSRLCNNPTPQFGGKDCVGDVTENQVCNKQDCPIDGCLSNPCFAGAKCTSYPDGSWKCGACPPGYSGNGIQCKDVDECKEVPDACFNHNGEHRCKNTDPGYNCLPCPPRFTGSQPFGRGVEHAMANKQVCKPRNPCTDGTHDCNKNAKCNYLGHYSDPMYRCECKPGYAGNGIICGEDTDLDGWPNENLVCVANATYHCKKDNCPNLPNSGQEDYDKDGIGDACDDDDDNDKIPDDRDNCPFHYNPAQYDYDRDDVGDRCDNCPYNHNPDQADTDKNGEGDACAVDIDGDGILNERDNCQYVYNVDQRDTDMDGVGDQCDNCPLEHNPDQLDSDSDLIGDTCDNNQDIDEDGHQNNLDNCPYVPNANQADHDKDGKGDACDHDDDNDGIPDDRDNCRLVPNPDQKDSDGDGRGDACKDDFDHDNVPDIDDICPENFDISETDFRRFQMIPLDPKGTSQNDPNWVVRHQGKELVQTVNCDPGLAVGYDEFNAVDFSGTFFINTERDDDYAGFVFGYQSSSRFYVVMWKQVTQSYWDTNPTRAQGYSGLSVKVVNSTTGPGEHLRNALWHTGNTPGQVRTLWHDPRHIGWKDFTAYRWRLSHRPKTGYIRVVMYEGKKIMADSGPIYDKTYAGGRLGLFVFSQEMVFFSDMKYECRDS

The target in the next test is T2, full-length FBLN7-Flag (UniProt Q501P1).
T2 sequence: T1 sequence
The test is described as follows: co-IP; HEK293T cells co-transfected with HA-tagged TSP1 and FBLN7-Flag (full length, deletion mutants or point mutants); precipitated in both directions for the full-length protein.

No constants are given. Whether binding was seen depends on the method and setting. In cells and extracts the contact can be indirect. Some binding calls cover weakened binding; strength is not graded here. Where a sequence is shown, tags or fusion partners need not be part of it.

Consider “TSP1 of SVF cells (ASPCs) (from UniProt P35441 19-1170)”, for which the binding result in test [1] is recorded as “binds”. In the case of “HA-tagged TSP1 (from UniProt P35441 19-1170)”, the binding result with full-length FBLN7-Flag is recorded as “binds”.

The values are drawn from publication PMC13064845.
